This assay has as its target GST-AMPK-C (291-552 a.a.) (UniProt P54646). Kind of assay: pull-down.

The chains behind the UniProt entries cited, without tags or fusion partners. Where a name states a change or a piece, a line headed by the entry shows the natural chain unless it says otherwise. Residues count along the entry.
UniProt P54646, residues 291-552: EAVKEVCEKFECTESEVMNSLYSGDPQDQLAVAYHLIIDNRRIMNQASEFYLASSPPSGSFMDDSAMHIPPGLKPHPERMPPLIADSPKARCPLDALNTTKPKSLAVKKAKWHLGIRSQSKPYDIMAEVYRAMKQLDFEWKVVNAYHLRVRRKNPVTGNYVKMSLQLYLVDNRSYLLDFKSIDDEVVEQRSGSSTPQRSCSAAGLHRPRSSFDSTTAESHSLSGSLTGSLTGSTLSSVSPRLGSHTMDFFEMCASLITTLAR
UniProt P62330: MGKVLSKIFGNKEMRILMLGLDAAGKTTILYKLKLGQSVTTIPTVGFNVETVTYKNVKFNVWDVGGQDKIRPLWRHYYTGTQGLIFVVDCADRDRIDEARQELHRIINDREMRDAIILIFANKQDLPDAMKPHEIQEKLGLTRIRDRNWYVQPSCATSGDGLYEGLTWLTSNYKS

These are yes or no findings as the source states them, for the method shown. Binding can be weak; no strength is given.

For “His-Arf6 T27N-d13N (from UniProt P62330)”, the binding result is reported as “binds”.

The values are drawn from publication doi:10.1101/2021.11.18.469188.
